The values that follow come from patent US8080522B2 (Institute of Pharmacology and Toxicology Academy of …, priority 2005, dated 2011).

The chains behind the UniProt entries cited, without tags or fusion partners. Where a name states a change or a piece, a line headed by the entry shows the natural chain unless it says otherwise.
UniProt P06454: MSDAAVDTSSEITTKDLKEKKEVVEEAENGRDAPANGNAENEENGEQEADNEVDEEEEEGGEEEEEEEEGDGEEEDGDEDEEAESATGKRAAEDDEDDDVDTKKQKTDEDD

The series is described as follows: general procedure: Fmoc solid-phase peptide synthesis; Wang resin; DCC/HOBt. As to conditions: conjugation step.

The substance “Ac-[Cys^5(mPEG5000-MAL)]Tα1 (SDAACDTSSEITTKDLKEKKEVVEEAEN; Thymosin alpha-1 N-acetyl; mPEG5000-maleimide on Cys5; UniProt P06454 2-29, looked up, variant V5C)” registered a conjugation yield of 38.2%.
With “Ac-[Cys^8(mPEG5000-MAL)]Tα1 (SDAAVDTCSEITTKDLKEKKEVVEEAEN; Thymosin alpha-1 N-acetyl; mPEG5000-maleimide on Cys8; UniProt P06454 2-29, looked up, variant S8C)” the figure was 37.1%; with “Ac-[Cys^16(mPEG5000-MAL)]Tα1 (SDAAVDTSSEITTKDCKEKKEVVEEAEN; Thymosin alpha-1 N-acetyl; mPEG5000-maleimide on Cys16; UniProt P06454 2-29, looked up, variant L16C)”, 53.3%; with “Ac-[Cys^17(mPEG5000-MAL)]Tα1 (SDAAVDTSSEITTKDLCEKKEVVEEAEN; Thymosin alpha-1 N-acetyl; mPEG5000-maleimide on Cys17; UniProt P06454 2-29, looked up, variant K17C)”, 42.6%.
